# Measurements: the supplement of paper PMC12595434, “Development of retinoid nuclear receptor pathway antagonists through targeting aldehyde dehydrogenase 1A3” (iScience, 2025)
# By UniProt entry, the sequences of proteins in these tests, tags left out. Where a name states a change or a piece, a line headed by the entry shows the natural chain unless it says otherwise.
# UniProt Q12882: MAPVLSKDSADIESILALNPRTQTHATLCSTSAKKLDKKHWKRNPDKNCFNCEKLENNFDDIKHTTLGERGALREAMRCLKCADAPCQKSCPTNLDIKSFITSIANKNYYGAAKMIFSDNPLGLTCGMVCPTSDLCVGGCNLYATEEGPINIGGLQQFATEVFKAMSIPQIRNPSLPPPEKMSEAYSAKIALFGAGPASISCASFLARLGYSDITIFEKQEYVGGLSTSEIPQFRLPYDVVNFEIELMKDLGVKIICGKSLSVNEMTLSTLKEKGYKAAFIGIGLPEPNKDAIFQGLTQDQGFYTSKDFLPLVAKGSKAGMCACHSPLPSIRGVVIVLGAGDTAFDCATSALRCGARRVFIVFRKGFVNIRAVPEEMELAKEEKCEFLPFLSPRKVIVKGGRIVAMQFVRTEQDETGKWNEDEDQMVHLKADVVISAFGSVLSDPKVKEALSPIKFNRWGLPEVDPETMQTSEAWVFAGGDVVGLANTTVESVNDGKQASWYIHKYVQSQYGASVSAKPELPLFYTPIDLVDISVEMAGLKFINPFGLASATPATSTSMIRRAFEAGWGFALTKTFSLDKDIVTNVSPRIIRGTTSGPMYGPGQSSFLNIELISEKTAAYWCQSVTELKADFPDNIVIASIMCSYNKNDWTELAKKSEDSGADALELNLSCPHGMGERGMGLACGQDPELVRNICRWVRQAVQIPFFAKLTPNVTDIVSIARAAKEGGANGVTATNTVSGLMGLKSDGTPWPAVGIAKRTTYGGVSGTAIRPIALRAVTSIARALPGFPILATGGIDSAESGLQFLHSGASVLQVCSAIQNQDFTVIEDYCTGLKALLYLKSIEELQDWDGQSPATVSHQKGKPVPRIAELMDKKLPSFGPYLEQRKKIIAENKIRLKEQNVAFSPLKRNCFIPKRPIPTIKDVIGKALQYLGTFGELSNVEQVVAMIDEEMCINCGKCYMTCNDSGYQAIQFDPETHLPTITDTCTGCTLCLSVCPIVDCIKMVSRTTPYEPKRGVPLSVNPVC
# UniProt Q10471: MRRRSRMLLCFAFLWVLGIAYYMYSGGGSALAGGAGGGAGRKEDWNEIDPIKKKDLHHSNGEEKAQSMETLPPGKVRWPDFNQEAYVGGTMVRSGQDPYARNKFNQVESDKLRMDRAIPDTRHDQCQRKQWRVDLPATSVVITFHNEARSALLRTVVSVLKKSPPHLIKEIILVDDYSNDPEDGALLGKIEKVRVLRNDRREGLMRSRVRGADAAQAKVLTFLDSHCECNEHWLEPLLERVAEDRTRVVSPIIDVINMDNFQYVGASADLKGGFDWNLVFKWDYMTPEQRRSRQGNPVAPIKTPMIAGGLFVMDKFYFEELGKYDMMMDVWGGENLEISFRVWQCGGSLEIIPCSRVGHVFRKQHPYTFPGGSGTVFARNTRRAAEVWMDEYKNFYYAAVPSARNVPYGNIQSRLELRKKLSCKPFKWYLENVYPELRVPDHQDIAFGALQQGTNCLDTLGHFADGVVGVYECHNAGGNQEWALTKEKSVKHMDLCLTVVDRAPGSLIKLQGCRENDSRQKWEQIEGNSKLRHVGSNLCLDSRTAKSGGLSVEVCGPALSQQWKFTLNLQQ
# UniProt Q11206: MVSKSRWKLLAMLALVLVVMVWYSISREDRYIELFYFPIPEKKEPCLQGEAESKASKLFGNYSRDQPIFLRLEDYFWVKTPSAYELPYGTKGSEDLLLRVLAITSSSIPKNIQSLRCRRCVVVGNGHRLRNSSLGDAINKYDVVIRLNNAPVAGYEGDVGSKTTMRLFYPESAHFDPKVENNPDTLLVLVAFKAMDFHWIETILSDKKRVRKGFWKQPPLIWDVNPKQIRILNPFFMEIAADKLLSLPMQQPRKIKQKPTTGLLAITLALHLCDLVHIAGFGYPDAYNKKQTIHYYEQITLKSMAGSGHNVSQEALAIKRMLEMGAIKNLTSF
# UniProt P83876: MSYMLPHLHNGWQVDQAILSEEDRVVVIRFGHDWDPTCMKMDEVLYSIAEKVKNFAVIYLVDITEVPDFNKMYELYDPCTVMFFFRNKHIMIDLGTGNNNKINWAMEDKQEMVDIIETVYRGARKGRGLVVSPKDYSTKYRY
# UniProt Q06323: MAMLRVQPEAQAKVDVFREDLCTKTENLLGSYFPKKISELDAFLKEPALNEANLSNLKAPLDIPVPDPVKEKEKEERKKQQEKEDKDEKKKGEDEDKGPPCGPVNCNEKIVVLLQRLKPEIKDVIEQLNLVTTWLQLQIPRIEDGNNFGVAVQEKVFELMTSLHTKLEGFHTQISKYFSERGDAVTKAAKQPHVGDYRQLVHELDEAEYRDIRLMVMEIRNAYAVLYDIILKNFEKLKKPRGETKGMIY
# UniProt Q03135: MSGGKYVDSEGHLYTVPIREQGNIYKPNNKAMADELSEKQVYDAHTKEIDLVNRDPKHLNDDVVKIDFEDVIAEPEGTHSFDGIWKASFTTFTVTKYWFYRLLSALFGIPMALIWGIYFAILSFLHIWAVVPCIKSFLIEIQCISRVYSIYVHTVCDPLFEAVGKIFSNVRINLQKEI
# UniProt P98198: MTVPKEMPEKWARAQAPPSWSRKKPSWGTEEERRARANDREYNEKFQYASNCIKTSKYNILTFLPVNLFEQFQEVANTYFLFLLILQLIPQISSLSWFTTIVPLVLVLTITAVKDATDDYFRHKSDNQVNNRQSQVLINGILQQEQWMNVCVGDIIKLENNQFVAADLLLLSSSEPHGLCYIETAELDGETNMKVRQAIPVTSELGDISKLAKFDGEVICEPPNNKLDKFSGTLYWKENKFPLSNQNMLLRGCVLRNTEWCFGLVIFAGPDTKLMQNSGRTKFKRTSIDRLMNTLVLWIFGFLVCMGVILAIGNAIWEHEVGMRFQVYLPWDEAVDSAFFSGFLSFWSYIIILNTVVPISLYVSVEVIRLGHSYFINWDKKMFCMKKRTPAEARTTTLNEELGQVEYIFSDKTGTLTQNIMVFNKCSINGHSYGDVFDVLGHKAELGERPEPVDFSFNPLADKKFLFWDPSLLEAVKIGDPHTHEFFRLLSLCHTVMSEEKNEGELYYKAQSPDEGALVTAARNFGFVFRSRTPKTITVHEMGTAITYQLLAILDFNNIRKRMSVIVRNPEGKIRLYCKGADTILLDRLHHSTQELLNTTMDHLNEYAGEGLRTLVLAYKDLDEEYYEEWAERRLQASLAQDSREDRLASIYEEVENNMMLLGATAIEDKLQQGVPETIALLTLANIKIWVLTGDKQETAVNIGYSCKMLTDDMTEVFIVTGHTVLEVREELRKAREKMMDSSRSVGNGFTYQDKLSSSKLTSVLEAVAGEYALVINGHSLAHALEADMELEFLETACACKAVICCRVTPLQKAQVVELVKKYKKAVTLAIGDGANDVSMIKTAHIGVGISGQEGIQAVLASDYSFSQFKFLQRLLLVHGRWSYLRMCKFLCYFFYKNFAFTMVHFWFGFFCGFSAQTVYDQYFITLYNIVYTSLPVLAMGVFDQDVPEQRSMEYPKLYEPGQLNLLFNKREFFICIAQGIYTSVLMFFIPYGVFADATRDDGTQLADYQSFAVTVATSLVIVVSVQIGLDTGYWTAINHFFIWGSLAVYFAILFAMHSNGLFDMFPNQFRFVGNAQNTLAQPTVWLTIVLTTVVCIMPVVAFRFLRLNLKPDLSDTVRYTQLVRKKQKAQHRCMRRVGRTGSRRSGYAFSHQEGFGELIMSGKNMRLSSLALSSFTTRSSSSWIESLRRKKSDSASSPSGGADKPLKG
# UniProt Q12851: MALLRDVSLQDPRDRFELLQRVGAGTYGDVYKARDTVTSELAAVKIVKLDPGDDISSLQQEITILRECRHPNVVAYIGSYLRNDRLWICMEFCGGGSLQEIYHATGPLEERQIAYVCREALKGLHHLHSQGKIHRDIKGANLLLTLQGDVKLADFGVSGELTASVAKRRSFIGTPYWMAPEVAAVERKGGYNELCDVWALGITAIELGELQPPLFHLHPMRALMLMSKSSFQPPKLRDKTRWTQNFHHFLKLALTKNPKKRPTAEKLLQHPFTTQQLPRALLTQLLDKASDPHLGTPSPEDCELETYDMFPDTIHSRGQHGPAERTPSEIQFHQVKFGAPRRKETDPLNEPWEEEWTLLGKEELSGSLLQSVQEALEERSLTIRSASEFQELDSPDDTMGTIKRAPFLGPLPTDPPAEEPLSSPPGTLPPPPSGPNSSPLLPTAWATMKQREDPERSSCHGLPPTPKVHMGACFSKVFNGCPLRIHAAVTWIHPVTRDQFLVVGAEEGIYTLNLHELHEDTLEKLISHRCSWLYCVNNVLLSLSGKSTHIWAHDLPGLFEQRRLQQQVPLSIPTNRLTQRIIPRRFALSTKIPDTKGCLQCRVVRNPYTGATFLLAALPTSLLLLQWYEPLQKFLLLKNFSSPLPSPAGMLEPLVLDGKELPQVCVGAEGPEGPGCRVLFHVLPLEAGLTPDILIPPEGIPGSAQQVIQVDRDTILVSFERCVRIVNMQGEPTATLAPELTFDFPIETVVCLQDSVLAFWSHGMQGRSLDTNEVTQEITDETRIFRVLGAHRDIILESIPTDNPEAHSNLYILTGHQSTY
# UniProt Q12788: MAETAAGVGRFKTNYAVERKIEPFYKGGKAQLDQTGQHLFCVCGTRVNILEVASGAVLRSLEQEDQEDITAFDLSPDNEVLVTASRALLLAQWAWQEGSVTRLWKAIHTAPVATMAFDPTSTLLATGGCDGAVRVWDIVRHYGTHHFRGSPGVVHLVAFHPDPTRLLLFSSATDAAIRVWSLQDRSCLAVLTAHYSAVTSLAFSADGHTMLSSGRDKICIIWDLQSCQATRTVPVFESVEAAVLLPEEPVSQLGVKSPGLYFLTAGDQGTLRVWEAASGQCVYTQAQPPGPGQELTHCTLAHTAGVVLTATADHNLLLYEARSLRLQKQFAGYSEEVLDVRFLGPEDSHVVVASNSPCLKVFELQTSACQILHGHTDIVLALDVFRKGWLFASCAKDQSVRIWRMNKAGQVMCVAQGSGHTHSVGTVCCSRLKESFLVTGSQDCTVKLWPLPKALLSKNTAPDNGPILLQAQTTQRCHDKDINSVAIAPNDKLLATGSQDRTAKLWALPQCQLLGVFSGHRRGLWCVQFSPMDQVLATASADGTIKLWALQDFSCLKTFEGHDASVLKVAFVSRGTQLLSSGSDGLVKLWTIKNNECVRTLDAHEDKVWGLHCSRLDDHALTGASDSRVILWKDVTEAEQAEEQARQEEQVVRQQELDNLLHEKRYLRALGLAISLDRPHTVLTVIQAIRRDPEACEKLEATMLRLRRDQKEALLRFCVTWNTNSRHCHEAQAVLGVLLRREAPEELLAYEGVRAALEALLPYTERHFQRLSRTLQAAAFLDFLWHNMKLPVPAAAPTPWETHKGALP
# UniProt Q05519: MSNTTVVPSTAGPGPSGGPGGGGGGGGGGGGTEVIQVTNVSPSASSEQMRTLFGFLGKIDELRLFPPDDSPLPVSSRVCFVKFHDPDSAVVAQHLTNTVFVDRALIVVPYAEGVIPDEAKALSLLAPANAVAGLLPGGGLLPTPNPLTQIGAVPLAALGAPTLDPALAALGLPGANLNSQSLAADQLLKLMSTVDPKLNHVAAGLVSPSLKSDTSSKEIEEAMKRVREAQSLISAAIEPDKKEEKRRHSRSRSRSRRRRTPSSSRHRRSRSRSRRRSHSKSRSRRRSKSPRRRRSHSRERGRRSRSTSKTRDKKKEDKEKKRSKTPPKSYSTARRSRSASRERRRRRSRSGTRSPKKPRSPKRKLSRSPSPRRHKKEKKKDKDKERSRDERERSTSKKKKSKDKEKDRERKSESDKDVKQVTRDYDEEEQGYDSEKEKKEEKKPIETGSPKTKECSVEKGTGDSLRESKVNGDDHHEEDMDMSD
# UniProt P82909: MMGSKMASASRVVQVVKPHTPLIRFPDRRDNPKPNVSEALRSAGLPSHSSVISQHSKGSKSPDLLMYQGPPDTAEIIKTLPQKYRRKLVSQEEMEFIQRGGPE
# UniProt Q09019: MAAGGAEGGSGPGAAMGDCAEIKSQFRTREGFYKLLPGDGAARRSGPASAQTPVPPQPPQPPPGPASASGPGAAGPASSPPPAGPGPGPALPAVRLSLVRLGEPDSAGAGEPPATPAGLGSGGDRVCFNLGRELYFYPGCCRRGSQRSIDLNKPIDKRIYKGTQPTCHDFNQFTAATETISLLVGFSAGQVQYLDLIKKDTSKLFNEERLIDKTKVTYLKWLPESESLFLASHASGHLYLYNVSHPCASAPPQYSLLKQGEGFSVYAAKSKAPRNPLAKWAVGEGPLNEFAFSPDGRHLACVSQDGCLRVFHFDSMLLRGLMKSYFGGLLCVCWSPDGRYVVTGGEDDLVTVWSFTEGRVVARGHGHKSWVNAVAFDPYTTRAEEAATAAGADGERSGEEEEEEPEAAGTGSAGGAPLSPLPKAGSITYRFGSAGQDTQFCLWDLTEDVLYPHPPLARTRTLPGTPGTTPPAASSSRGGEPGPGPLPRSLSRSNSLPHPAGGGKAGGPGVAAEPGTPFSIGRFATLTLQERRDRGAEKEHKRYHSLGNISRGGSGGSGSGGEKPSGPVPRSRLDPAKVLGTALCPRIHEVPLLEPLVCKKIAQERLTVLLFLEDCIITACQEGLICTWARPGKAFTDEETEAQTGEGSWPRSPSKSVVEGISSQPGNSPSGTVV
# This is one part of the list. Single values of this set are uncertain.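 Tm was set to 64 °C where no melting was found, and many curves are irregular.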
# Compound: CCc1cnccc1C(=O)Nc1cc2c(cc1F)NC(=O)CC2
# Experiment: melting temperature shift (DMSO Tm minus MBE1-treated Tm) in cellular thermal proteome profiling; higher = less thermal stabilization by MBE1 (negative = stabilized by MBE1)
# Conditions: A375
Target,melting temperature shift (MBE1 concentration: 100 nM),melting temperature shift (MBE1 concentration: 1 uM)
DPYD (UniProt Q12882),-0.469 °C,0.839 °C
SP3 (UniProt Q02447),-4.65 °C,-2.05 °C
UniProt Q05655,-0.324 °C,0.153 °C
GOLGA3 (UniProt Q08378),-0.403 °C,0.202 °C
ARHGAP1 (UniProt Q07960),0.0122 °C,0.366 °C
GALNT2 (UniProt Q10471),0.684 °C,0.202 °C
UniProt Q08426,0.216 °C,0.637 °C
ST3GAL4 (UniProt Q11206),-0.516 °C,0.449 °C
UniProt Q05D32,0.616 °C,0.395 °C
UniProt Q13009,-1.6 °C,0.122 °C
CDC16 (UniProt Q13042),0.427 °C,0.293 °C
UniProt Q01484,0.427 °C,0.354 °C
GTF3C1 (UniProt Q12789),-0.218 °C,-0.532 °C
UniProt Q08043,-1.2 °C,-1.04 °C
UniProt Q13029,-1.84 °C,0.195 °C
UniProt Q01459,-0.745 °C,0.0305 °C
ATP11A (UniProt P98196),-1.02 °C,0.214 °C
UniProt Q02078,-0.362 °C,-0.423 °C
GLO1 (UniProt Q04760),-1.04 °C,-1.62 °C
FKBP4 (UniProt Q02790),0.275 °C,-0.0611 °C
LMNB2 (UniProt Q03252),0.336 °C,0.202 °C
TLE3 (UniProt Q04726),-1.15 °C,-0.469 °C
ATP7A (UniProt Q04656),0.672 °C,0.568 °C
TXNL4A (UniProt P83876),0 °C,1.07 °C
PSME1 (UniProt Q06323),-0.215 °C,-0.228 °C
GTF2I (UniProt P78347),0.115 °C,-0.179 °C

# Whole records from above. Values in the order: melting temperature shift (MBE1 concentration: 100 nM)	melting temperature shift (MBE1 concentration: 1 uM)
# TLE3 (UniProt Q04726) as listed: -1.15 °C	-0.469 °C
# UniProt Q13029 as listed: -1.84 °C	0.195 °C

# (list continues)

Target,melting temperature shift (MBE1 concentration: 100 nM),melting temperature shift (MBE1 concentration: 1 uM)
SLC25A3 (UniProt Q00325),-2.61 °C,0.712 °C
CAV1 (UniProt Q03135),-0.986 °C,-0.521 °C
UniProt P98198,1.34 °C,0.783 °C
MAP4K2 (UniProt Q12851),-0.0977 °C,-1.7 °C
TBL3 (UniProt Q12788),1.01 °C,0.33 °C
SPTBN1 (UniProt Q01082),-0.55 °C,0.128 °C
UniProt Q03468,-1.21 °C,-1.98 °C
SRSF11 (UniProt Q05519),-0.0366 °C,-0.348 °C
MRPS36 (UniProt P82909),-0.664 °C,-0.127 °C
PTPRJ (UniProt Q12913),1.65 °C,0.873 °C
CPSF1 (UniProt Q10570),0.379 °C,0.0977 °C
UniProt P78527,0.226 °C,0.055 °C
TP53BP1 (UniProt Q12888),-1.17 °C,-1.27 °C
KHDRBS1 (UniProt Q07666),-0.107 °C,0.25 °C
KLC1 (UniProt Q07866),-0.512 °C,0.0733 °C
RAE1 (UniProt P78406),0.157 °C,-0.0855 °C
TFAP4 (UniProt Q01664),-2.07 °C,-0.946 °C
SET (UniProt Q01105),-1.11 °C,-0.739 °C
OCRL (UniProt Q01968),0.843 °C,1.03 °C
UniProt P98175,-1.49 °C,-0.532 °C
UniProt P84077,-1.84 °C,0.519 °C
DLG1 (UniProt Q12959),-0.856 °C,-0.305 °C
MRPS34 (UniProt P82930),0.336 °C,-0.122 °C
UBE3A (UniProt Q05086),-0.235 °C,0.0783 °C
DMWD (UniProt Q09019),-2.04 °C,-3.71 °C
